{
  "source": "the supplement of paper PMC10727501",
  "note": "This is one part of the list. This data set is noisy: repeats of one test often differ as much as different tests do.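 Free-swimming zebrafish larvae were scored for O-bend response probability to dark flashes (naive: first five; training: remaining flashes of four 60-flash blocks; test: later 60-flash block) and for turning toward alternating leftward/rightward LED motion (OMR). Six treated larvae were compared with sixty 0.1% DMSO controls; |SSMD|≥2 defined a hit.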",
  "data": [
    {"test_system": "Danio rerio larvae (5 dpf, TLF)", "experiment": "OMR-Perf (SSMD vs DMSO vehicle); higher = higher than vehicle (e.g. higher dark-flash O-bend response probability, or better optomotor performance)", "conditions": "10 µM; pre-incubation: 30-90 min", "values": [
      {"smiles": "CN(C)CCOc1ccc(-c2nc(-c3ccncc3)c(-c3ccc4c(c3)CC/C4=N/O)[nH]2)cc1", "OMR-Perf": -0.145},
      {"smiles": "CC(=O)OCC(CCn1cnc2cnc(N)nc21)COC(C)=O", "note": "[Famciclovir]", "OMR-Perf": -0.418},
      {"smiles": "CCc1cncnc1N1CCN(Cc2nc3cc(C(F)(F)F)ccc3[nH]2)CC1", "OMR-Perf": -0.45},
      {"smiles": "CO[C@H]1/C=C/O[C@@]2(C)Oc3c(C)c(O)c4c(O)c(c(/C=N/N5CCN(C)CC5)c(O)c4c3C2=O)NC(=O)/C(C)=C/C=C/[C@H](C)[C@H](O)[C@@H](C)[C@@H](O)[C@@H](C)[C@H](OC(C)=O)[C@@H]1C", "note": "[Rifampin]", "OMR-Perf": -0.471},
      {"smiles": "CC(C)c1ccc(NC(=O)Cn2cnc3c2c(=O)n(C)c(=O)n3C)cc1", "OMR-Perf": -0.454},
      {"smiles": "CCS(=O)(=O)Nc1ccc2c(c1)/C(=C(/Nc1ccc(CN3CCCCC3)cc1)c1ccccc1)C(=O)N2", "note": "[Hesperadin]", "OMR-Perf": -0.184},
      {"smiles": "Cc1ccccc1C(=O)Nc1ccc(C(=O)N2CCCC(N(C)C)c3ccccc32)cc1", "note": "(stereo not given) [Mozavaptan]", "OMR-Perf": -0.33},
      {"smiles": "CC(C)C[C@H](NC(=O)[C@H](CCc1ccccc1)NC(=O)CN1CCOCC1)C(=O)N[C@@H](Cc1ccccc1)C(=O)N[C@@H](CC(C)C)C(=O)[C@@]1(C)CO1", "note": "[Carfilzomib (PR-171)]", "OMR-Perf": -0.267},
      {"smiles": "O=c1[nH]c(=O)n([C@H]2C[C@H](O)[C@@H](CO)O2)cc1C(F)(F)F", "note": "[Trifluridine]", "OMR-Perf": -0.717},
      {"smiles": "COc1ccc([C@H]2CNC(=O)C2)cc1OC1CCCC1", "note": "[S- (+)-Rolipram]", "OMR-Perf": -0.73}
    ]}
  ]
}
